Reference: the supplement of paper PMC8728848
The other results are listed elsewhere or left out.

Legend:
Test in all cases: glycan array binding signal (z-score within array); higher = stronger binding
Conditions in all cases: glycan notation: IUPAC condensed, linker removed
[1] = molecular target: Fuc(a1-3)GlcNAc
Method in brief: (§1)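 Arrays were curated from the Consortium for Functional Glycomics database, 3228 in total, and kept only where the protein sequence was available. Binding is expressed as a within-array Z-score. This score was averaged across arrays of the same protein sequence at different concentrations or buffers and across linkers, and negative values can be read as non-binding.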

[2] = molecular target: Fuc(a1-3)[Gal(b1-4)]Glc6S
Method in brief: as §1

[3] = molecular target: Fuc(a1-3)[Gal(b1-4)]GlcNAc
Method in brief: as §1

[4] = molecular target: Fuc(a1-3)[Gal(b1-4)]GlcNAc(b1-2)Man
Method in brief: as §1

[5] = molecular target: Fuc(a1-3)[Gal(b1-4)]GlcNAc(b1-2)Man(a1-3)[Fuc(a1-3)[Gal(b1-4)]GlcNAc(b1-2)Man(a1-6)]Man(b1-4)GlcNAc(b1-4)GlcNAc
Method in brief: as §1

[6] = molecular target: Fuc(a1-3)[Gal(b1-4)]GlcNAc(b1-2)Man(a1-3)[Fuc(a1-3)[Gal(b1-4)]GlcNAc(b1-2)Man(a1-6)]Man(b1-4)GlcNAc(b1-4)[Fuc(a1-6)]GlcNAc
Method in brief: as §1

[7] = molecular target: Fuc(a1-3)[Gal(b1-4)]GlcNAc(b1-3)Gal(b1-3)[Fuc(a1-4)]GlcNAc
Method in brief: as §1

[8] = molecular target: Fuc(a1-3)[Gal(b1-4)]GlcNAc(b1-3)Gal(b1-4)[Fuc(a1-3)]GlcNAc
Method in brief: as §1

[9] = molecular target: Fuc(a1-3)[Gal(b1-4)]GlcNAc(b1-3)Gal(b1-4)[Fuc(a1-3)]GlcNAc(b1-3)Gal(b1-4)[Fuc(a1-3)]GlcNAc
Method in brief: as §1

[10] = molecular target: Fuc(a1-3)[Gal(b1-4)]GlcNAc(b1-3)GalNAc
Method in brief: as §1

[11] = molecular target: Fuc(a1-3)[Gal(b1-4)]GlcNAc(b1-6)GalNAc
Method in brief: as §1

[12] = molecular target: Fuc(a1-3)[Gal(b1-4)]GlcNAc(b1-6)[Gal(b1-3)GlcNAc(b1-3)]Gal(b1-4)Glc
Method in brief: as §1

[13] = molecular target: Fuc(a1-3)[Gal(b1-4)]GlcNAc6S
Method in brief: as §1

[14] = molecular target: Fuc(a1-3)[Gal3S(b1-4)]Glc
Method in brief: as §1

[15] = molecular target: Fuc(a1-3)[Gal3S(b1-4)]GlcNAc
Method in brief: as §1

[16] = molecular target: Fuc(a1-3)[Gal3S(b1-4)]GlcNAc6S
Method in brief: as §1

[17] = molecular target: Fuc(a1-3)[GalNAc(b1-4)]GlcNAc
Method in brief: as §1

[18] = molecular target: Fuc(a1-3)[GalNAc(b1-4)]GlcNAc6S
Method in brief: as §1

[19] = molecular target: Fuc(a1-4)GlcNAc
Method in brief: as §1

[20] = molecular target: Fuc(b1-3)GlcNAc
Method in brief: as §1

[21] = molecular target: Gal(a1-2)Gal
Method in brief: as §1

[22] = molecular target: Gal(a1-3)Gal
Method in brief: as §1

[23] = molecular target: Gal(a1-3)Gal(b1-3)GlcNAc
Method in brief: as §1

[24] = molecular target: Gal(a1-3)Gal(b1-3)GlcNAc(b1-2)Man
Method in brief: as §1

[25] = molecular target: Gal(a1-3)Gal(b1-3)GlcNAc(b1-2)Man(a1-3)[Gal(a1-3)Gal(b1-3)GlcNAc(b1-2)Man(a1-6)]Man(b1-4)GlcNAc(b1-4)GlcNAc
Method in brief: as §1

[26] = molecular target: Gal(a1-3)Gal(b1-3)GlcNAc(b1-3)GalNAc
Method in brief: as §1

[27] = molecular target: Gal(a1-3)Gal(b1-3)GlcNAc(b1-6)GalNAc
Method in brief: as §1

[28] = molecular target: Gal(a1-3)Gal(b1-3)[Fuc(a1-4)]GlcNAc(b1-2)Man(a1-3)[Gal(a1-3)Gal(b1-3)[Fuc(a1-4)]GlcNAc(b1-2)Man(a1-6)]Man(b1-4)GlcNAc(b1-4)GlcNAc
Method in brief: as §1

[29] = molecular target: Gal(a1-3)Gal(b1-4)Glc
Method in brief: as §1

[30] = molecular target: Gal(a1-3)Gal(b1-4)GlcNAc
Method in brief: as §1

[31] = molecular target: Gal(a1-3)Gal(b1-4)GlcNAc(b1-2)Man
Method in brief: as §1

[32] = molecular target: Gal(a1-3)Gal(b1-4)GlcNAc(b1-2)Man(a1-3)[Gal(a1-3)Gal(b1-4)GlcNAc(b1-2)Man(a1-6)]Man(b1-4)GlcNAc(b1-4)GlcNAc
Method in brief: as §1

[33] = molecular target: Gal(a1-3)Gal(b1-4)GlcNAc(b1-3)GalNAc
Method in brief: as §1

[34] = molecular target: Gal(a1-3)Gal(b1-4)GlcNAc(b1-6)GalNAc
Method in brief: as §1

[35] = molecular target: Gal(a1-3)Gal(b1-4)[Fuc(a1-3)]GlcNAc
Method in brief: as §1

[36] = molecular target: Gal(a1-3)Gal(b1-4)[Fuc(a1-3)]GlcNAc(b1-2)Man(a1-3)[Gal(a1-3)Gal(b1-4)[Fuc(a1-3)]GlcNAc(b1-2)Man(a1-6)]Man(b1-4)GlcNAc(b1-4)GlcNAc
Method in brief: as §1

[37] = molecular target: Gal(a1-3)GalNAc
Method in brief: as §1

B1: SJCP1531 (Schistosoma japonicum) (protein)
chain: MFKVRIINLVNISTVLLLINLLQTKSQVNVEQLVTVLEVNIKAQLKNKTTEVLVEWNPLYQDNSMPEYRKLLDETCKLFLPFVNEKVPPSTYGGECTNANFSEAPQDGSYSRVNAELRLIYKYSDNPQIQTDRLQDDLNDREEFITSESSFVAYNPKFTVKIEKLFIPISESQTTPPPTTAKNDASKKDDDDNGGEDSKAPIDTFAMTASGNKGKKDDDDNGGEDSKAPIDTFAMTASGSKDERSTWTIIGIITLVVLIFVVIGGGITVFVKRC
glycan array binding signal (z-score) [1]: 0.494
glycan array binding signal (z-score) [2]: 0.907
glycan array binding signal (z-score) [3]: 0.487
glycan array binding signal (z-score) [4]: 0.026
glycan array binding signal (z-score) [5]: -1.06
glycan array binding signal (z-score) [6]: 0.842
glycan array binding signal (z-score) [7]: 0.404
glycan array binding signal (z-score) [8]: -0.673
glycan array binding signal (z-score) [9]: 0.726
glycan array binding signal (z-score) [10]: 0.934
glycan array binding signal (z-score) [11]: 1.34
glycan array binding signal (z-score) [12]: 0.644
glycan array binding signal (z-score) [13]: 1.41
glycan array binding signal (z-score) [14]: -0.677
glycan array binding signal (z-score) [15]: 0.241
glycan array binding signal (z-score) [16]: 0.461
glycan array binding signal (z-score) [17]: 0.047
glycan array binding signal (z-score) [18]: -0.037
glycan array binding signal (z-score) [19]: -0.391
glycan array binding signal (z-score) [20]: 0.027
glycan array binding signal (z-score) [21]: -0.287
glycan array binding signal (z-score) [22]: 0.7
glycan array binding signal (z-score) [23]: -1.22
glycan array binding signal (z-score) [24]: -0.185
glycan array binding signal (z-score) [25]: 1.01
glycan array binding signal (z-score) [26]: -1.82
glycan array binding signal (z-score) [27]: -0.915
glycan array binding signal (z-score) [28]: 0.362
glycan array binding signal (z-score) [29]: -0.638
glycan array binding signal (z-score) [30]: -0.844
glycan array binding signal (z-score) [31]: -0.54
glycan array binding signal (z-score) [32]: 1.01
glycan array binding signal (z-score) [33]: -0.726
glycan array binding signal (z-score) [34]: -0.651
glycan array binding signal (z-score) [35]: -0.201
glycan array binding signal (z-score) [36]: 0.047
glycan array binding signal (z-score) [37]: -0.507
